The structures given here were assigned with low confidence; some may be wrong.
Molecular target: Human P2X7 (hP2X7) receptor (Homo sapiens, UniProt Q99572)
Assay: Dye assay: BzATP-induced Yo-Pro-1 uptake in HEK293 cells stably expressing hP2X7
Settings: BzATP (0.1 mM)-induced Yo-Pro-1 uptake, compounds 30 min pre-treatment, 90 min incubation
Text: Human P2X7 (hP2×7) was cloned from a normal human brain total RNA library by reverse transcription (using SuperScript II (Invitrogen)) and PCR (using KOD-plus-(TOYOBO)). PCR primers were designed according to hP2X7 sequence registered in GENBANK with a putative amino acid sequence consisting of 595 amino acid residues. The PCR fragments were inserted into pcDNA3.1/myc-HisA vector (Invitrogen) and sequenced for confirmation.
HEK293 cells were transfected with hP2×7/pcDNA3.1/myc-HisA by lipofection, and 1 day later, the cells were treated with 1 mg/mL G418, and resistant cells were selected by appropriately dilution. The resistant cells were cloned by reseeding at a low density.
P2X7 receptor antagonists were screened by a dye uptake assay using HEK293 cells stably expressing hP2×7. […] Then, the fluorescence (indicating the BzATP-induced Yo-Pro-1 uptake mediated by the P2X7 receptor) was measured with a microplate reader (excitation wavelength: 485 nm, emission wavelength: 535 nm). The % inhibition rates were calculated and plotted against the logarithms of the concentrations to determine IC50.

By UniProt entry, the sequences of proteins in these tests, tags left out.
UniProt Q99572, whole entry: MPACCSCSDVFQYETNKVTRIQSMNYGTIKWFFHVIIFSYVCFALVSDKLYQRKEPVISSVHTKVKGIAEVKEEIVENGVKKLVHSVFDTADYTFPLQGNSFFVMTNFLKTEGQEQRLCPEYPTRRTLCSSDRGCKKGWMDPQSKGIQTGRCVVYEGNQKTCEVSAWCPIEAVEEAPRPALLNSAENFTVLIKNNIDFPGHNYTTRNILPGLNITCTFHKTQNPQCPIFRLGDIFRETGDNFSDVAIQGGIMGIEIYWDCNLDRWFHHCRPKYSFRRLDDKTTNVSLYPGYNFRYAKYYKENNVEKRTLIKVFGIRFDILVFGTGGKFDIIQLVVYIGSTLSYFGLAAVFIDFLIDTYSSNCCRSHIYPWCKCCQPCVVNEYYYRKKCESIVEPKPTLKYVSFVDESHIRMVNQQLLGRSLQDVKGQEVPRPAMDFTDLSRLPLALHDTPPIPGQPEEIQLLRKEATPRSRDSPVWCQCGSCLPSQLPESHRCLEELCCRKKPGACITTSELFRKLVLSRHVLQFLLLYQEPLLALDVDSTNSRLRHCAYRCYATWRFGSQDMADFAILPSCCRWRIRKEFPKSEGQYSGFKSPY

Compound `CCCCCCCCCCCCCCCCNc1cnn(CC(=O)NCc2ccncc2)c(=O)c1Br` has an IC50 of 320 nM.
